According to PMC7052238:
These are yes or no findings as the source states them, for the method shown. In cells and extracts the contact can be indirect. Some binding calls cover weakened binding; strength is not graded here.

Sequences of proteins named here, by UniProt entry; tags and fusion partners are left off. A change or cut given only in a name is not applied to a line headed by its entry.
UniProt P15313: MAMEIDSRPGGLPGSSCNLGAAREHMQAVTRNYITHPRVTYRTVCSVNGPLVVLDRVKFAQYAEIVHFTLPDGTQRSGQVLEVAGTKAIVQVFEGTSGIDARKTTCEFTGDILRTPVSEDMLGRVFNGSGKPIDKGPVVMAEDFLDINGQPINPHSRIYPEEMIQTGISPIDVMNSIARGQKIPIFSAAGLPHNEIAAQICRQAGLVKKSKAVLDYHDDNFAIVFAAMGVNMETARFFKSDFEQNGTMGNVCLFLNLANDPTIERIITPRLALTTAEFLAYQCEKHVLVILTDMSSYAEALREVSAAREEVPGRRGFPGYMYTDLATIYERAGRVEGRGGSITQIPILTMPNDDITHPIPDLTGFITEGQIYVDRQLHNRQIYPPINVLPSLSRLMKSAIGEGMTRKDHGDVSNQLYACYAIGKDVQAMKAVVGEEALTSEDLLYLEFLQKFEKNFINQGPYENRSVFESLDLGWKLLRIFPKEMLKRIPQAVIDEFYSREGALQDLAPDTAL
UniProt Q9HBG4: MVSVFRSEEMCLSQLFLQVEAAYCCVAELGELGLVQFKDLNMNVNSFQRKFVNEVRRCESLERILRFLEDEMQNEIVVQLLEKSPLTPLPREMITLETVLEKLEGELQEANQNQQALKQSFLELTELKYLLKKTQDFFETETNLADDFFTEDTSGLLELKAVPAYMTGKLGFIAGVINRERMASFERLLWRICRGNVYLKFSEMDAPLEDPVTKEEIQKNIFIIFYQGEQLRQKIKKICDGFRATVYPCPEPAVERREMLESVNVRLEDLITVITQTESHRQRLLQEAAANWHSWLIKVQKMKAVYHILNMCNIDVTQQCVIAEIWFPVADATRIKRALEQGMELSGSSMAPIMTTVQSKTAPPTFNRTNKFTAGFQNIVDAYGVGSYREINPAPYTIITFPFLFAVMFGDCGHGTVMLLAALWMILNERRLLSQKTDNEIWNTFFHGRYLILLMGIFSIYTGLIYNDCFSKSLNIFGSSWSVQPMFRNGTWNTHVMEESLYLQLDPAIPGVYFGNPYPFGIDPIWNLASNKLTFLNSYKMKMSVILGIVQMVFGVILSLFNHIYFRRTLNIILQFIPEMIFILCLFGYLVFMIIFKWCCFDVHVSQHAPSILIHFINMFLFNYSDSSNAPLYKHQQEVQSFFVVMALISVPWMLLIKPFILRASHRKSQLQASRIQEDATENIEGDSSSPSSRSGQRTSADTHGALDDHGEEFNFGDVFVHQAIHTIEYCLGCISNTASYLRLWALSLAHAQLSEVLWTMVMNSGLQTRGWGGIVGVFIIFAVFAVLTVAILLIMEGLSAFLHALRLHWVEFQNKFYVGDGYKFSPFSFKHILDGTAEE

Target: HA-tagged ATP6V1B1 (B1 subunit of V-ATPase) (human) (UniProt P15313)
Experiment: co-IP; HEK293T cells transfected with Flag-A4 or Flag-A4-mut and HA-B1, 48 h; whole-cell lysate immunoprecipitated with anti-Flag or anti-HA antibody and protein A/G magnetic beads overnight at 4 °C (forward and reverse); blots with anti-Flag and anti-HA

| binding | Substance |
| --- | --- |
| binds | Flag-tagged ATP6V0A4-wild type (a4 subunit of V-ATPase) (from UniProt Q9HBG4 1-840) |
| no binding | Flag-tagged ATP6V0A4/p.S544L mutant-type (a4 subunit of V-ATPase) (from UniProt Q9HBG4 1-840) |
